Results are given in words; binding and its absence hold for the method and conditions named. In cells and extracts the contact can be indirect. Some results given as binding are weak or reduced against the parent protein; the word gives no strength. Sequences can lack the tags named with a protein.

By UniProt entry, the sequences of proteins in these tests, tags left out.
UniProt Q13131: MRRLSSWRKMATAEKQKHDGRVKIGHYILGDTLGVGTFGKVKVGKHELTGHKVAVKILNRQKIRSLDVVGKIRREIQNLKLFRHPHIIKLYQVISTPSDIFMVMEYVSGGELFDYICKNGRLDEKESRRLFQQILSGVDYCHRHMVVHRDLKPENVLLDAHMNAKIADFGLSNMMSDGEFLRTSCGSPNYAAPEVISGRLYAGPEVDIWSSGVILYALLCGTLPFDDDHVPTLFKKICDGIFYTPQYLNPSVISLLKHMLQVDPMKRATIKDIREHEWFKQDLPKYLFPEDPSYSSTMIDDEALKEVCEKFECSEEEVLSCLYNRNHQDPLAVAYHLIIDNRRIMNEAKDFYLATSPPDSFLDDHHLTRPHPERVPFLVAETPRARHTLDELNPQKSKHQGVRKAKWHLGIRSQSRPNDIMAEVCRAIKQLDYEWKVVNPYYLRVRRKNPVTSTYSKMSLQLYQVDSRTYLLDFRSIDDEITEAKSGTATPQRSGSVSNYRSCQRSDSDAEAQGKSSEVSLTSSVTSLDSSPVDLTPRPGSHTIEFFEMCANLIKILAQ

Drawing on publication PMC12663271, this text covers binding for one molecule.

The target in the assay is Flag-tagged AMPKα1 (UniProt Q13131). Nature of the assay: co-IP; 293T cells co-transfected with Flag- and HA-tagged constructs; lysis in BC300 (300 mM KCl, 0.1% NP40), diluted with an equal volume of BC0; anti-Flag M2 magnetic beads; washes with BC150; western blot; glucose said to have a limited effect on the interaction (Fig. S3A). For orientation: A western blot detects proteins with antibodies after separation by electrophoresis.

B1: HA-tagged WIP1 (enzyme, UniProt O15297 1-605)
chain: MAGLYSLGVSVFSDQGGRKYMEDVTQIVVEPEPTAEEKPSPRRSLSQPLPPRPSPAALPGGEVSGKGPAVAAREARDPLPDAGASPAPSRCCRRRSSVAFFAVCDGHGGREAAQFAREHLWGFIKKQKGFTSSEPAKVCAAIRKGFLACHLAMWKKLAEWPKTMTGLPSTSGTTASVVIIRGMKMYVAHVGDSGVVLGIQDDPKDDFVRAVEVTQDHKPELPKERERIEGLGGSVMNKSGVNRVVWKRPRLTHNGPVRRSTVIDQIPFLAVARALGDLWSYDFFSGEFVVSPEPDTSVHTLDPQKHKYIILGSDGLWNMIPPQDAISMCQDQEEKKYLMGEHGQSCAKMLVNRALGRWRQRMLRADNTSAIVICISPEVDNQGNFTNEDELYLNLTDSPSYNSQETCVMTPSPCSTPPVKSLEEDPWPRVNSKDHIPALVRSNAFSENFLEVSAEIARENVQGVVIPSKDPEPLEENCAKALTLRIHDSLNNSLPIGLVPTNSTNTVMDQKNLKMSTPGQMKAQEIERTPPTNFKRTLEESNSGPLMKKHRRNGLSRSSGAQPASLPTTSQRKNSVKLTMRRRLRGQKKIGNPLLHQHRKTVCVC
For the molecule B1, the binding entry is “binds”.
